Values of other authors, collected in patent US7968712B2, “Process for the resolution of zopiclone and intermediate compounds” (Esteve Quimica, S.A., priority 2007, dated 2011).
At least one structure is not confirmed: it was looked up by name or label, or the drawing left a doubt.

Conditions: compared with racemic zopiclone

## CN1CCN(C(=O)O[C@H]2c3nccnc3C(=O)N2c2ccc(Cl)cn2)CC1 [dextrorotatory enantiomer, eszopiclone]
  activity relative to the racemate: approximately twice active as the racemate
